Data published in patent publication US20090297438A1, “Human Monoclonal Antibodies to Prostate Specific Membrane Antigen (PSMA)” (priority 2005, published 2009).
These are yes or no findings as the source states them, for the method shown. Some binding calls cover weakened binding; strength is not graded here.

The chains behind the UniProt entries cited, without tags or fusion partners.
UniProt Q04609: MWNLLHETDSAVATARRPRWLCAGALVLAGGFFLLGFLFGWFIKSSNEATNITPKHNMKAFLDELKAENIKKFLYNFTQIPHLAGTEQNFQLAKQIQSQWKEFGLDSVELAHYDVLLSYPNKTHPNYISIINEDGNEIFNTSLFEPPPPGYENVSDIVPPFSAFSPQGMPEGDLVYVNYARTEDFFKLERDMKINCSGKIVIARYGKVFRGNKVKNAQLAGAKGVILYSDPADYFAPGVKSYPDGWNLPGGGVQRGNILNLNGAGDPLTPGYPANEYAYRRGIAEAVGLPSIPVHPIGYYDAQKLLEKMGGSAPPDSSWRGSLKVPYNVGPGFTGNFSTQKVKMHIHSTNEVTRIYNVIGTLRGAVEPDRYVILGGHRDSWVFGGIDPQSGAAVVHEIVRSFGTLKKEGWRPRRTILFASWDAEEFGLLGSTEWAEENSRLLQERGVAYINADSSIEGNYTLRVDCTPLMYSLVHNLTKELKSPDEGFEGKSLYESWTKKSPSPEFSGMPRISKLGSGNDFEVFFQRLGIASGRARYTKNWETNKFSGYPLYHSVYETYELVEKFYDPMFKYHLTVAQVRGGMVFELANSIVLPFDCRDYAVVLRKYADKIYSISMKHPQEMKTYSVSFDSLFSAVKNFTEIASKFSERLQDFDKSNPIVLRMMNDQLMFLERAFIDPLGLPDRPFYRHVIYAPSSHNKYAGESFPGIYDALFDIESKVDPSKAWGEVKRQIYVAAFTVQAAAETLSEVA

Key:
[1] = target: human prostate specific membrane antigen (PSMA) on LNCaP prostate cancer cells (human) (UniProt Q04609); test: flow cytometry on LNCaP cells
[2] = target: PSMA immunopurified from LNCaP cells (human) (UniProt Q04609); test: ELISA on PSMA purified from LNCaP cells
[3] = target: human prostate specific membrane antigen (PSMA) on LNCaP prostate cancer cells (human) (UniProt Q04609); test: flow cytometry on LNCaP cells, FITC anti-human IgG detection
[4] = target: PSMA immunopurified from LNCaP cells (human) (UniProt Q04609); test: ELISA on immunopurified PSMA, antibody from 5 ug/ml in 1:2 dilutions
[5] = target: human prostate specific membrane antigen (PSMA) on LNCaP prostate cancer cells (human) (UniProt Q04609); test: flow cytometry on LNCaP cells, FITC-labeled anti-human IgG detection
[6] = target: PSMA immunopurified from LNCaP cells (human) (UniProt Q04609); test: ELISA on PSMA immunopurified from LNCaP cells, HRP goat anti-human IgG (kappa chain-specific) detection

Measured: binding

B1: anti-PSMA human monoclonal antibody 2F5 (antibody, V domains shown)
VH: EVQLVQSGAEVKKPGESLKISCKGSGYSFTSNWIGWVRQMPGKGLEWMGIIYPGDSDTRYSPSFQGQVTISADKSISTAYLQWNSLKASDTAMYYCARQTGFLWSFDLWGRGTLVTVSS
VL: AIQLTQSPSSLSASVGDRVTITCRASQDISSALAWYQQKPGKAPKLLIYDASSLESGVPSRFSGSGSGTDFTLTISSLQPEDFATYYCQQFNSYPLTFGGGTKVEIKI
binds: all assays above
